Results taken from article PMC5556043.
No constants are given. Whether binding was seen depends on the method and setting. In cells and extracts the contact can be indirect. Some entries that bind do so weakly or less than the wild type.

The chains behind the UniProt entries cited, without tags or fusion partners. Residues count along the entry.
UniProt Q9QZS3: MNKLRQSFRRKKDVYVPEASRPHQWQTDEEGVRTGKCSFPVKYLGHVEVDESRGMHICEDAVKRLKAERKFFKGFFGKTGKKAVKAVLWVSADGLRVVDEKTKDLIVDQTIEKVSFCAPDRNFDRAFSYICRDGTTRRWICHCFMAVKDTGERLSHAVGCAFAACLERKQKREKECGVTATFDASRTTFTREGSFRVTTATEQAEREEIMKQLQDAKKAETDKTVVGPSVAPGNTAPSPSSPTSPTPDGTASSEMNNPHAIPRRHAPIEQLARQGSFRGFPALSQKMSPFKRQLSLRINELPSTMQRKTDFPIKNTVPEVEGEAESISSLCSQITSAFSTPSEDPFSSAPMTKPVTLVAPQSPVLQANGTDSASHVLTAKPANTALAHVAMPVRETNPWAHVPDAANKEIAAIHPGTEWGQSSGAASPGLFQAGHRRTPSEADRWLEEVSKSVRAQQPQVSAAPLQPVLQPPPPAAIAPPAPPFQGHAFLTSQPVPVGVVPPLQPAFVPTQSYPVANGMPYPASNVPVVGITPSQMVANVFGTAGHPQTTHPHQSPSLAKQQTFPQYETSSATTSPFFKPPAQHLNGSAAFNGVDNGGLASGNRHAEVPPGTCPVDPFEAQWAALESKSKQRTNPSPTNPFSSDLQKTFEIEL
UniProt P70398: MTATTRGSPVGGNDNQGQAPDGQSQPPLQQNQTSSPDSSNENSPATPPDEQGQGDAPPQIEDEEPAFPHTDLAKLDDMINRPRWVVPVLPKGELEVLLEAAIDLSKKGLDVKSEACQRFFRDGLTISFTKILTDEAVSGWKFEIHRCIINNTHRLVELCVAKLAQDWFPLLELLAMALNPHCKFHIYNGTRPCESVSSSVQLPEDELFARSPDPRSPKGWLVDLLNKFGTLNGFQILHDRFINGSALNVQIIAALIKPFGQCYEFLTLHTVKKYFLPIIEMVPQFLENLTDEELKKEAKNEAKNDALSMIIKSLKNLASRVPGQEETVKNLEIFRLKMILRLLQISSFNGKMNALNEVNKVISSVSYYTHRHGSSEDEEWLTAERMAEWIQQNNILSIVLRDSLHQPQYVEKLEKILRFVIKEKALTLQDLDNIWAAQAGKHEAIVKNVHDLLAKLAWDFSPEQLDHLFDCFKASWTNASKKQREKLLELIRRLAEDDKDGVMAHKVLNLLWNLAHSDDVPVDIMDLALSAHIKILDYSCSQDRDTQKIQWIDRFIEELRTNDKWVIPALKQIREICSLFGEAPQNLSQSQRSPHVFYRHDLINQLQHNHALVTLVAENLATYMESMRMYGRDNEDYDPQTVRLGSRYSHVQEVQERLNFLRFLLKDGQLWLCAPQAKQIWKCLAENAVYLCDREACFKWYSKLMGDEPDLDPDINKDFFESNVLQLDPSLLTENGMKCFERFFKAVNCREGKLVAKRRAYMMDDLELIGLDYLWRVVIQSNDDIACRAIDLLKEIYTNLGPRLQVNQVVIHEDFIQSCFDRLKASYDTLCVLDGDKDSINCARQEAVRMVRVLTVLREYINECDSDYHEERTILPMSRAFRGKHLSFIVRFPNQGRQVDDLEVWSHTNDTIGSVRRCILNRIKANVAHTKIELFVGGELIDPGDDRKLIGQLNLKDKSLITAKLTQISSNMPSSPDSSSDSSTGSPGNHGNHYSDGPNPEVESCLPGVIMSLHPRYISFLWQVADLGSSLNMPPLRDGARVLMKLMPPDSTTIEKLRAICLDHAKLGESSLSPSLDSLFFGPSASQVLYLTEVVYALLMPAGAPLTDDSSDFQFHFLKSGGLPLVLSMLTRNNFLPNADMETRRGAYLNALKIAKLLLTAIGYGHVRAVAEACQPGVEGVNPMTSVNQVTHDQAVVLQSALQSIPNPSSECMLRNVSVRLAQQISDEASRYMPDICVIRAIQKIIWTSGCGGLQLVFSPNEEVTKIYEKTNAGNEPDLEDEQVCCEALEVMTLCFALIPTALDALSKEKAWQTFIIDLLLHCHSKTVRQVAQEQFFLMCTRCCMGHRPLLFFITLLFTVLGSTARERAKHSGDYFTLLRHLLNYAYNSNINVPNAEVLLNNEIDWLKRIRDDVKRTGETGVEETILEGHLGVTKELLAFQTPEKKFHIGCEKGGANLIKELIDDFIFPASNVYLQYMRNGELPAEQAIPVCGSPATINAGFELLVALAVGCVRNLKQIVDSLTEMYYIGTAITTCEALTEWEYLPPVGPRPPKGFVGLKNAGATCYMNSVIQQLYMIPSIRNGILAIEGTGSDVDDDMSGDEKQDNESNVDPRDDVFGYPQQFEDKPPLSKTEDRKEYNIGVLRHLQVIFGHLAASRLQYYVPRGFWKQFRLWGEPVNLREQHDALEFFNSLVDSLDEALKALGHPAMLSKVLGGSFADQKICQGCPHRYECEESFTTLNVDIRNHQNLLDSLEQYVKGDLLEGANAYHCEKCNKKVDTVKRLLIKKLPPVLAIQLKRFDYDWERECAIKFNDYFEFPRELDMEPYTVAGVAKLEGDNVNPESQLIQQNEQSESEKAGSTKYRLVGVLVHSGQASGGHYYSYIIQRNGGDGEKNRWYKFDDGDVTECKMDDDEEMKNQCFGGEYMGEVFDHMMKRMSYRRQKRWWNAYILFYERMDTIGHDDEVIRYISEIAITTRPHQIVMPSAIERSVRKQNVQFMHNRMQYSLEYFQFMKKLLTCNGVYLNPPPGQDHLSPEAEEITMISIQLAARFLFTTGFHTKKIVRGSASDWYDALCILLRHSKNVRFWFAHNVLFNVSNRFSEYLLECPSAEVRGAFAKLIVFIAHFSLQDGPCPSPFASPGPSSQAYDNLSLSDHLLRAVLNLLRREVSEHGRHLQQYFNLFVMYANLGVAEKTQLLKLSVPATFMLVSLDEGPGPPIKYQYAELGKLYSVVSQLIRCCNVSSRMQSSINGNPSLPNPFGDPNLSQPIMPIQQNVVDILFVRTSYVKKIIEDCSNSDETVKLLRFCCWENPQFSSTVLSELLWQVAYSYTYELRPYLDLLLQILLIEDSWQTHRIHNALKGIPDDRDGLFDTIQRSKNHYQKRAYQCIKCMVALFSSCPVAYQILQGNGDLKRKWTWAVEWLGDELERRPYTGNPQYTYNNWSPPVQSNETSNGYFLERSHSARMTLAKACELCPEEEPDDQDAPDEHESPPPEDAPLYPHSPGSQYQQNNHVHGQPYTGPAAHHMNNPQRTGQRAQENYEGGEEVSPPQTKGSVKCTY
UniProt P15116, residues 160-906: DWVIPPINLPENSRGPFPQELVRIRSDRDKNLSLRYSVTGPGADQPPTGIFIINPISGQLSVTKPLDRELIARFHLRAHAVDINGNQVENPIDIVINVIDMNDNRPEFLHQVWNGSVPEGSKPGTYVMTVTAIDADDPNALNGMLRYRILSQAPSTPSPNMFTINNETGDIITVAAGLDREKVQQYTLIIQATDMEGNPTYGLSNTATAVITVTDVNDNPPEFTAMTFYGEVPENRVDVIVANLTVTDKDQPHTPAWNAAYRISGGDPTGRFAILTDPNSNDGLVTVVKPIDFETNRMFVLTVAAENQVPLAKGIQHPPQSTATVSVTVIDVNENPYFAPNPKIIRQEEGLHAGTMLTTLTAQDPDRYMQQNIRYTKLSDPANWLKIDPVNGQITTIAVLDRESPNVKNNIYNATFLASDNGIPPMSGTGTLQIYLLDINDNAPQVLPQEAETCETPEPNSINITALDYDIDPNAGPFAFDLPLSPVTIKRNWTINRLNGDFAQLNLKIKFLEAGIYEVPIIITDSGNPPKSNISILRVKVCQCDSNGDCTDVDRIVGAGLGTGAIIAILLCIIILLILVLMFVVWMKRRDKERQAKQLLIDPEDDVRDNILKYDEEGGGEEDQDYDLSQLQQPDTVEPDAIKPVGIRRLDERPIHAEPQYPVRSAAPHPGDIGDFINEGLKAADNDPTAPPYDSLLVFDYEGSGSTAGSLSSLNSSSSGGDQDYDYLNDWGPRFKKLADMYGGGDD
UniProt Q93008: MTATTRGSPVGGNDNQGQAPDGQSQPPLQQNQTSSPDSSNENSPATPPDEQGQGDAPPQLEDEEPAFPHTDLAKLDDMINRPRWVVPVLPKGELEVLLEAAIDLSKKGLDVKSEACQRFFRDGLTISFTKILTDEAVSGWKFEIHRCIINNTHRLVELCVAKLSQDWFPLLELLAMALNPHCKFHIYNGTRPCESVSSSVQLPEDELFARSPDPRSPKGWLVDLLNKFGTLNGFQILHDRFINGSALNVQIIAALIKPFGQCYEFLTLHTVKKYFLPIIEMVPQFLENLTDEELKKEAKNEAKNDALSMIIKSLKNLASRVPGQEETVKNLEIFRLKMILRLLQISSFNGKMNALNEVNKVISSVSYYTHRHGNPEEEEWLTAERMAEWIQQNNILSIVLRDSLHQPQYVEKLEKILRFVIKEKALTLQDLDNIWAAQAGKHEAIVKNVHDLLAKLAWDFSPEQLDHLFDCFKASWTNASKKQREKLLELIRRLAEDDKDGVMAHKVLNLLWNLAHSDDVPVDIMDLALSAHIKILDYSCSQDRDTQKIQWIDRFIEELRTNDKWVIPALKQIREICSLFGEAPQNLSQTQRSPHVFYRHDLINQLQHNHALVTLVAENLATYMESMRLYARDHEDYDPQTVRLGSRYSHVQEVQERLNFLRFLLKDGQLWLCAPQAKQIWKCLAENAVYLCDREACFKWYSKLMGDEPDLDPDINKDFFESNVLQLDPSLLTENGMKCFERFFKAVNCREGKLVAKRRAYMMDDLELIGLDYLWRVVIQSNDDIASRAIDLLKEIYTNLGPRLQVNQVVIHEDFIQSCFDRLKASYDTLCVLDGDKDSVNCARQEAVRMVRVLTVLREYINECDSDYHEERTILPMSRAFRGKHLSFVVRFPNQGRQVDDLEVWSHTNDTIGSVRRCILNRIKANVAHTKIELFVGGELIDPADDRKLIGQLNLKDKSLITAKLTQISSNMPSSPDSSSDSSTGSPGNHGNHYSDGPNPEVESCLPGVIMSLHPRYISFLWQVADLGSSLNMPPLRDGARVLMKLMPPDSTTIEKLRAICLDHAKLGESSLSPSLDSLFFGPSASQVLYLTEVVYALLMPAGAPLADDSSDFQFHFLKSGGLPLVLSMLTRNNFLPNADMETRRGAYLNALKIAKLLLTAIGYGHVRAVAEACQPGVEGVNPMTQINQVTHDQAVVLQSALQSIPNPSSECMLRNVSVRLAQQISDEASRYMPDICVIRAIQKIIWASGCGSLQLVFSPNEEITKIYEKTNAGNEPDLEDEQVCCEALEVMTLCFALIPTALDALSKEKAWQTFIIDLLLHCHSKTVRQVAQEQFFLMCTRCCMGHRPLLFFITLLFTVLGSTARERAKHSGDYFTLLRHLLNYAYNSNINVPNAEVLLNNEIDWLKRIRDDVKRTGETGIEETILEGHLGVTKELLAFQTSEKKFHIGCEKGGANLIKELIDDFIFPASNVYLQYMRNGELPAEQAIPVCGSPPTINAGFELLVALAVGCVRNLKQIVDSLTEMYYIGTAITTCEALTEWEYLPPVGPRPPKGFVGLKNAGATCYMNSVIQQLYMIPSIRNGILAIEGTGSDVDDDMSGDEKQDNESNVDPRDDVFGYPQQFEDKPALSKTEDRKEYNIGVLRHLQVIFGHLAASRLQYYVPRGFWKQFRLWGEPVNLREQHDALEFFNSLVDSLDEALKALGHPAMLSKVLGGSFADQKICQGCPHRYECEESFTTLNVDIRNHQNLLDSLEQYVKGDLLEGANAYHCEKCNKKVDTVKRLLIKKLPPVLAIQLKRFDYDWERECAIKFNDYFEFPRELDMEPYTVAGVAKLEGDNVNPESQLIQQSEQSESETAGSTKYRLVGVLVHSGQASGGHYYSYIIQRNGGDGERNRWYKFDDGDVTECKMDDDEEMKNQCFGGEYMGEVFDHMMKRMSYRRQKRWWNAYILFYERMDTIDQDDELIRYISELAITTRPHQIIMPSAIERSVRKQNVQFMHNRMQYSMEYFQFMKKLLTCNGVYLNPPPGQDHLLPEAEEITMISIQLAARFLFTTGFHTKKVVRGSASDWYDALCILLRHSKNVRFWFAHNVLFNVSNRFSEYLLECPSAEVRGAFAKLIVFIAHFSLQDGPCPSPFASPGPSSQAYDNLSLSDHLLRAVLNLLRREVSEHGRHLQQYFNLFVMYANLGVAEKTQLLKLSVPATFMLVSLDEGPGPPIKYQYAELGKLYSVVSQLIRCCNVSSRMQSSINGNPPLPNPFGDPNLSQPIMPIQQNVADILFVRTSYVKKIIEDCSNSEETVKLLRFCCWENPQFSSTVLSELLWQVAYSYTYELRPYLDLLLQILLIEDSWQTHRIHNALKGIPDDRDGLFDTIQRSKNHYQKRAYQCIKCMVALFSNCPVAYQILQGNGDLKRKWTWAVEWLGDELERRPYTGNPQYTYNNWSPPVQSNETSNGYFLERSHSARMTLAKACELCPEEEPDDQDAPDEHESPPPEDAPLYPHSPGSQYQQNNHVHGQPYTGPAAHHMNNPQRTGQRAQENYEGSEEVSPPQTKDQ

What was measured:
[1] = molecular target: β-catenin, mouse (mouse (endogenous in embryonic neocortex)) (UniProt Q02248); assay: co-IP; endogenous proteins from embryonic mouse cortical lysates (E14.5; E12.5 too for β-catenin; Usp9x +/Y and Usp9x -/Y), immunoprecipitated with an antibody to the bait (β-catenin, Axin, APC, β-TrCP, Usp9x or Numb), Pierce co-immunoprecipitation kit, immunoblot; IP lysis buffer 20 mM HEPES pH 7.8, 400 mM KCl, 5 mM EDTA, 0.4% NP40, 10% glycerol, 1 mM DTT
[2] = molecular target: Numb, mouse (mouse (endogenous in embryonic neocortex)) (UniProt Q9QZS3); assay: as above
[3] = molecular target: ubiquitin specific peptidase 9 located in the X-chromosome (Usp9x), mouse (mouse (endogenous in embryonic neocortex)) (UniProt P70398); assay: as above
[4] = molecular target: N-cadherin, mouse (mouse (endogenous in embryonic neocortex)) (UniProt P15116); assay: as above
[5] = molecular target: APC, human (human (endogenous in HEK293)) (UniProt P25054); assay: co-IP; endogenous proteins from HEK293 cell lysates, immunoprecipitated with Axin antibody or APC antibody, immunoblot

| binding [1] | binding [2] | binding [3] | Substance | further results |
| --- | --- | --- | --- | --- |
| binds | – | – | N-cadherin, mouse (from UniProt P15116 160-906) | – |
| binds | binds | – | ubiquitin specific peptidase 9 located in the X-chromosome (Usp9x), mouse (from UniProt P70398 1-2559) (enzyme) | binding [4]: binds |

Further lines, the substance ahead of its results:

| Substance | binding [1] | binding [2] | binding [3] | further results |
| --- | --- | --- | --- | --- |
| Itch, mouse (from UniProt Q8C863 1-864) (enzyme) | – | binds | binds | – |
| Numb, mouse (from UniProt Q9QZS3 1-653) | – | – | binds | – |
| USP9X, human (from UniProt Q93008 1-2554) (enzyme) | – | – | – | binding [5]: binds |
